The name of at least one read-out is uncertain.
What was measured:
muscarinic receptors [1] = assay: Radio ligand binding, displacement of muscarinic agonist 3H-Oxotremorine-M (3H-OXO-M), rat cerebral cortex membranes; set-up: species or system Hooded Lister rats; conditions: 2 nM 3H-OXO-M, 2 mM magnesium chloride, tris pH 7.7, 37° C., 30 min
muscarinic receptors [2] = assay: Radio ligand binding, displacement of muscarinic antagonist 3H-Quinuclidinyl Benzilate (3H-QNB), rat cerebral cortex membranes; set-up: species or system Hooded Lister rats; conditions: 0.27 nM 3H-QNB, tris pH 7.7, 37° C., 30 min

SMILES	IC50 (muscarinic receptors [1])	IC50 (muscarinic receptors [2])
Ic1nnn(C2CN3CCC2CC3)n1 (racemic) [E45, (±) 3-(5-Iodotetrazol-2-yl)-1-azabicyclo[2.2.2]octane]	0.036 µM	0.36 µM
c1cn(C2CN3CCC2CC3)nn1 (racemic) [E35, (±) 3-(1,2,3-triazol-1-yl)-1-azabicyclo[2.2.2]octane]	8.5 µM	85 µM
